Data from PubChem BioAssay AID540256 (National Center for Advancing Translational Sciences (NCATS), 2011).
The list shows a part of the results, in another mix than the full data. Inconclusive results are not listed. Calls of active or inactive are those of the source. Calls follow the shape of the full dose curve; tested in HEK293 cells.

test: qHTS for Inhibitors of binding or entry into cells for Lassa Virus; settings: Lassa virus pseudotype entry inhibition, cell reporter; also: nearly all actives have a fitted effect of over 50% in size
Potency is read from the fitted curve at half-maximal effect.

Row | Structure (SMILES) | Potency
1 | Fc1ccc(-c2ncn(C3CCNCC3)c2-c2ccnc(Oc3cccc(C(F)(F)F)c3)n2)cc1 | active: 12.5 µM
2 | Fc1ccc(-c2ncn(C3CCNCC3)c2-c2ccnc(Oc3cccc(F)c3)n2)cc1 | active: 6.28 µM
3 | Fc1ccc(-c2ncn(C3CCNCC3)c2-c2ccnc(Oc3ccc(Cl)cc3)n2)cc1 | active: 17.7 µM
4 | CC(C)(C)c1ccc(Oc2nccc(-c3c(-c4ccc(F)cc4)ncn3C3CCNCC3)n2)cc1 | active: 6.28 µM
5 | Cc1cccc(Oc2nccc(-c3c(-c4ccc(F)cc4)ncn3C3CCNCC3)n2)c1C | active: 14.1 µM
